Laboratory results from PubChem BioAssay AID493014 (National Center for Advancing Translational Sciences (NCATS), 2011).
This is one part of the list. These are further read-outs of the screen, such as a control signal, another cell line or another target. No call is given for them. Most of these compounds were active or inconclusive in the main read-out, so they are no random draw. The note in brackets gives the kind of curve behind each potency; many fits are weak.

Assay: qHTS Assay to Find Inhibitors of Chronic Active B-Cell Receptor Signaling
Settings: ABC-DLBCL IkBa-CBG/CBR reporter, luminescence ratio (green luciferase fused to IkBa over red control in TMD8 lymphoma cells), 4 h
How it was run: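 TMD8 ABC-DLBCL cells carrying doxycycline-inducible green luciferase fused to IkappaBalpha plus unfused red luciferase were exposed to compounds (up to 46 uM) for 4 hrs at 37C. Activity came from the overlap-corrected green/red luminescence ratio.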

[1] = measured here: CBR red luminescence, cell number
[2] = measured here: IkBa-CBG green luminescence

SMILES	AC50 [1]	AC50 [2]
C/C(=N\NC(=O)c1ccncc1)c1cccc(NC(=O)c2ccc(C(C)(C)C)cc2)c1	35.5 µM [falling, single point]	–
COc1cccc(NC(=S)NCc2ccco2)c1	0.651 µM [rising, partial curve, poor fit]	–
N#Cc1cccc(C(c2nnnn2C2CCCC2)N2CCCCCC2)c1 (stereo not drawn)	35.5 µM [falling, partial curve, poor fit]	–
CCOC(=O)N(Cc1ccccc1)C(C(=O)O)C(C(=O)O)N(Cc1ccccc1)C(=O)OCC (stereo not drawn)	1.78 µM [rising, partial curve, poor fit]	–
Fc1ccc(-n2c(Cc3ccccc3)nnc2SCc2nc(-c3cccs3)no2)cc1	25.9 µM [falling, single point]	–
Cc1cc(C)cc(NC(=O)C2CCCN2/C=C/C(=O)C(F)(F)F)c1 (stereo not drawn)	6.51 µM [falling, single point]	5.8 µM [rising, partial curve, poor fit]
COc1ccc(NC2CCCN(C(=O)CN3C(=O)c4ccccc4C3=O)C2)cc1OC (stereo not drawn)	35.5 µM [rising, single point]	–
CCC(C)NCCOCCOc1ccc(Cl)cc1Br (stereo not drawn)	20 µM [falling, single point]	–
COC(=O)c1ccc(C(=O)Nc2ccc3nc(-c4ccncc4)[nH]c3c2)cc1	35.5 µM [falling, single point]	–
CC(C)N1CCN(Cc2ccc3c(c2)Cc2ccccc2-3)CC1CCO (stereo not drawn)	22.4 µM [falling, single point]	–
COc1ccc(/C=N/NC(=O)c2ccc(O)cc2)cc1CN1CCCc2ccccc21	1.84 µM [falling, full curve]	–
O=C(/C=C/c1cccc(Cl)c1)N1CCC(Cc2ccccc2)CC1	0.517 µM [rising, full curve, poor fit]	–
CCOc1ccccc1-c1nc(-c2ccc(C)nc2OC)no1	10 µM [rising, single point]	–
O=C(COc1nsnc1N1CCOCC1)Nc1ccc(Cl)cc1	5.62 µM [falling, full curve]	–
CCOC(=O)c1ccc(N2C(=O)CC(N(Cc3ccc4c(c3)OCO4)C(=O)Nc3ccccc3)C2=O)cc1 (stereo not drawn)	0.058 µM [falling, full curve, poor fit]	–
COc1cc(-c2nnc(SCc3cc(=O)oc4cc(C)ccc34)o2)cc(OC)c1OC	2.24 µM [rising, full curve]	–
O=C(Cc1ccc(-n2c(=O)c3ccccc3n(Cc3cccc([N+](=O)[O-])c3)c2=O)cc1)NCC1CCCO1 (stereo not drawn)	29.1 µM [rising, single point]	29.1 µM [falling, partial curve, poor fit]
CN1/C(=C/C(=O)CSc2ccccc2C(=O)O)C(C)(C)c2ccccc21	35.5 µM [falling, single point]	–
NCC12CC3CC(CC(O)(C3)C1)C2	1.3 µM [rising, partial curve, poor fit]	–
Cc1ccc(S(=O)(=O)/N=C2/NC(=O)/C(=C/c3ccc(Br)o3)S2)cc1	29.1 µM [rising, single point]	–
NC1=NC[C@@H](Cc2ccc(O)cc2)N1CC1CCCCC1	31.6 µM [rising, single point]	–

Shown as a markdown table: entries from further up

| SMILES | AC50 [1] | AC50 [2] |
| --- | --- | --- |
| CCC(C)NCCOCCOc1ccc(Cl)cc1Br (stereo not drawn) | 20 µM [falling, single point] | – |
| O=C(COc1nsnc1N1CCOCC1)Nc1ccc(Cl)cc1 | 5.62 µM [falling, full curve] | – |

Going on with the list:

SMILES	AC50 [1]	AC50 [2]
CC(=O)c1ccc(NC(=S)NC(=O)Cc2ccc(Cl)cc2)cc1	6.31 µM [rising, single point]	–
Cc1ccn2cc(-c3cccc(NC(=O)c4ccccc4)c3)nc2c1	0.82 µM [rising, full curve]	–
CC(NC(=O)c1ccc(S(=O)(=O)NCc2ccco2)cc1)c1ccc(F)cc1 (stereo not drawn)	4.61 µM [rising, partial curve, poor fit]	20.6 µM [falling, partial curve, poor fit]
COc1ccc(C(C)=O)cc1COc1cccnc1[N+](=O)[O-]	4.47 µM [falling, full curve, poor fit]	–
C/C(=N\NC(=O)c1ccccc1F)c1ccc(C#N)cc1	14.1 µM [falling, partial curve, poor fit]	–
O=S(=O)(c1ccc(F)cc1)N1CC=C(c2ccccc2)CC1	0.501 µM [falling, partial curve, poor fit]	–
CN(C(=O)c1ccccc1OCc1ccc(F)cc1)c1c(N)n(Cc2ccccc2)c(=O)[nH]c1=O	3.26 µM [falling, full curve]	–
Cc1ccccc1N(Cc1ccccc1F)S(C)(=O)=O	3.26 µM [rising, full curve, poor fit]	–
COC(=O)c1nnn(-c2nonc2N)c1COc1ccc(C=O)cc1OC	17.8 µM [rising, single point]	25.1 µM [falling, single point]
COc1ccc(C(=S)N2CCOCC2)cc1OC(=O)c1ccc([N+](=O)[O-])cc1[N+](=O)[O-]	25.1 µM [falling, single point]	–
Cc1ccc(C(=O)N(CC#N)CC#N)cc1C	0.562 µM [rising, full curve]	–
CCOC(=O)N1CCN(C(=O)c2ccc(CS(=O)(=O)c3c(Cl)cccc3Cl)o2)CC1	5.8 µM [rising, full curve, poor fit]	–
O=C(NCc1cccnc1)c1ccc(NC(=O)c2ccco2)cc1	1.84 µM [rising, partial curve, poor fit]	–
CCCCOCCCNC(=O)c1ccccc1OCC	0.082 µM [rising, full curve, poor fit]	–
CC1Oc2ccccc2C=C1/C=N/NC(=O)c1ccccc1O (stereo not drawn)	3.66 µM [falling, partial curve]	–
Cc1ccc(C#N)c(SCc2ccccc2[N+](=O)[O-])n1	–	9.2 µM [falling, partial curve]
O=C(Nc1cccc2ccccc12)c1ccc(Br)o1	25.9 µM [falling, partial curve, poor fit]	–
Cc1ccc(C)c(N2C(=O)N(Cc3c(F)cccc3Cl)c3ccccc3S2(=O)=O)c1	2.51 µM [falling, full curve, poor fit]	–
CC(=O)Nc1ccc(NC(=S)Nc2ccccc2)cc1	5.17 µM [rising, partial curve, poor fit]	–
O=C(COC(=O)c1ccccc1NCCO)NCC1CCCCC1	16.4 µM [falling, single point]	–
Cc1ccc(C(=O)NCCc2c[nH]c3ccccc23)c(C)c1	25.1 µM [falling, partial curve, poor fit]	–

SMILES	AC50 [1]	AC50 [2]
CSc1ccccc1C(=O)OCC(=O)Nc1cccnc1Cl	29.1 µM [falling, single point]	–
CN(CC(=O)Nc1cccc(S(=O)(=O)N2CCCC2)c1)CC(=O)Nc1ccc(Cl)c(C(F)(F)F)c1	25.9 µM [falling, single point]	–
CC1=NN(C(=O)c2ccc(Br)cc2)C(O)(c2ccccc2)C1 (stereo not drawn)	15.8 µM [falling, partial curve, poor fit]	–
Cc1ccc(/C=N/NC(=O)c2ccccc2OCc2cccc(Br)c2)o1	15.8 µM [falling, single point]	–
CCCNC(=O)CCNC(=O)c1ccc(C(C)(C)C)cc1	6.31 µM [rising, partial curve, poor fit]	–
O=C1CC(Sc2nnnn2-c2ccccc2)C(=O)N1c1cccc(Cl)c1 (stereo not drawn)	18.4 µM [falling, single point]	29.1 µM [rising, partial curve, poor fit]
Cc1noc(C)c1COc1ccc(CC(=O)NCc2ccccc2)cc1	31.6 µM [rising, single point]	15.8 µM [falling, partial curve]
CCOC(=O)c1sc(Nc2cccc(C)c2C)nc1C	6.31 µM [falling, partial curve, poor fit]	–
CCCCCC1CC(CC(=O)Nc2ccc([N+](=O)[O-])cc2)OC1=O (stereo not drawn)	25.1 µM [falling, single point]	–
Cc1ccc(NC(=O)c2cc(-c3ccco3)on2)cc1	11.2 µM [falling, partial curve, poor fit]	–
CO/N=C/c1ccc(Oc2ccc(C)cc2)c([N+](=O)[O-])c1	35.5 µM [rising, single point]	–
COc1cc2nc(CCc3ccccc3)oc(=O)c2cc1OC	22.4 µM [falling, single point]	–
COc1ccc(-c2ccc3ccccc3n2)cc1	0.447 µM [rising, full curve, poor fit]	–
COc1ccc(Cl)cc1S(=O)(=O)N1CCN(C)CC1	1.46 µM [falling, partial curve, poor fit]	–
CC12CCC(=O)N1C(C(=O)Nc1nc(-c3ccccc3Cl)cs1)CS2 (stereo not drawn)	18.4 µM [falling, partial curve]	–
Cc1ccc(C(=O)Nc2ccc3c(c2)CCC3)cc1	3.98 µM [rising, single point]	–
COc1ccc(-c2nn(CCC(=O)O)cc2/C=C2\SC(N)=NC2=O)cc1OC	–	2.91 µM [rising, partial curve, poor fit]
Cc1cccc(NC(=O)c2ccc([N+](=O)[O-])o2)c1	11.2 µM [falling, single point]	–
CC(C)COc1ccc(C(=O)Nc2ccc(NC(=O)c3ccco3)c(Cl)c2)cc1	0.58 µM [falling, full curve]	–
CCOc1ccc(NC(=O)/C=C/c2ccccc2)c([N+](=O)[O-])c1	5.8 µM [rising, full curve]	–

Among those listed so far, twelve have an aryl methoxy group.
SMILES	AC50 [1]	AC50 [2]
COc1cccc(NC(=S)NCc2ccco2)c1	0.651 µM [rising, partial curve, poor fit]	–
COc1ccc(NC2CCCN(C(=O)CN3C(=O)c4ccccc4C3=O)C2)cc1OC (stereo not drawn)	35.5 µM [rising, single point]	–
COc1ccc(/C=N/NC(=O)c2ccc(O)cc2)cc1CN1CCCc2ccccc21	1.84 µM [falling, full curve]	–
CCOc1ccccc1-c1nc(-c2ccc(C)nc2OC)no1	10 µM [rising, single point]	–
COc1cc(-c2nnc(SCc3cc(=O)oc4cc(C)ccc34)o2)cc(OC)c1OC	2.24 µM [rising, full curve]	–
COc1ccc(C(C)=O)cc1COc1cccnc1[N+](=O)[O-]	4.47 µM [falling, full curve, poor fit]	–
COC(=O)c1nnn(-c2nonc2N)c1COc1ccc(C=O)cc1OC	17.8 µM [rising, single point]	25.1 µM [falling, single point]
COc1ccc(C(=S)N2CCOCC2)cc1OC(=O)c1ccc([N+](=O)[O-])cc1[N+](=O)[O-]	25.1 µM [falling, single point]	–
COc1cc2nc(CCc3ccccc3)oc(=O)c2cc1OC	22.4 µM [falling, single point]	–
COc1ccc(-c2ccc3ccccc3n2)cc1	0.447 µM [rising, full curve, poor fit]	–
COc1ccc(Cl)cc1S(=O)(=O)N1CCN(C)CC1	1.46 µM [falling, partial curve, poor fit]	–
COc1ccc(-c2nn(CCC(=O)O)cc2/C=C2\SC(N)=NC2=O)cc1OC	–	2.91 µM [rising, partial curve, poor fit]
